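Human melanoma cell lines in 1,536-well plates were treated with two drugs together for 72 h, then fixed, stained and imaged. Each value is the cleaved-PARP-positive fraction of nuclei relative to DMSO-treated wells, in %, so that 100 equals the control and higher values mean more apoptosis. Concentrations were fixed for each drug; these are the higher of two levels. These are primary screening values without error estimates. Basal and induced levels differ widely between cell lines.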
An unselected part of the screen is shown.

Drug key:
tipifarnib, 0.05 µM: Cn1cncc1[C@@](N)(c1ccc(Cl)cc1)c1ccc2c(c1)c(-c1cccc(Cl)c1)cc(=O)n2C
CX-4945, 2 µM: O=C(O)c1ccc2c(c1)nc(Nc1cccc(Cl)c1)c1ccncc12
sorafenib, 2 µM: CNC(=O)c1cc(Oc2ccc(NC(=O)Nc3ccc(Cl)c(C(F)(F)F)c3)cc2)ccn1
A-769662, 10 µM: N#Cc1c(O)c2c(-c3ccc(-c4ccccc4O)cc3)csc2[nH]c1=O
gemcitabine, 0.002 µM: Nc1ccn([C@@H]2O[C@H](CO)[C@@H](O)C2(F)F)c(=O)n1
bexarotene, 10 µM: C=C(c1ccc(C(=O)O)cc1)c1cc2c(cc1C)C(C)(C)CCC2(C)C
FH535, 5 µM: Cc1cc([N+](=O)[O-])ccc1NS(=O)(=O)c1cc(Cl)ccc1Cl
GW2580, 5 µM: COc1ccc(COc2ccc(Cc3cnc(N)nc3N)cc2OC)cc1
PF-562271, 0.4 µM: CN(c1ncccc1CNc1nc(Nc2ccc3c(c2)CC(=O)N3)ncc1C(F)(F)F)S(C)(=O)=O

Combination	IPC-298
tipifarnib and sorafenib	31.2
gemcitabine and A-769662	229
gemcitabine and GW2580	136
CX-4945 and FH535	235
CX-4945 and gemcitabine	373
bexarotene and tipifarnib	103
CX-4945 and A-769662	64.8
tipifarnib and PF-562271	104
CX-4945 and GW2580	114
GW2580 and bexarotene	66.1
gemcitabine and bexarotene	161
PF-562271 and bexarotene	165
A-769662 and GW2580	117
FH535 and sorafenib	90.3
PF-562271 and sorafenib	198
CX-4945 and bexarotene	277
A-769662 and FH535	108
GW2580 and sorafenib	135
tipifarnib and FH535	164
sorafenib and bexarotene	175
PF-562271 and FH535	76.3
FH535 and bexarotene	158
gemcitabine and FH535	114
PF-562271 and GW2580	74.2
tipifarnib and gemcitabine	101
PF-562271 and CX-4945	310
PF-562271 and gemcitabine	295
GW2580 and FH535	33.5
A-769662 and sorafenib	43.0
A-769662 and tipifarnib	31.8
CX-4945 and sorafenib	42.7
tipifarnib and GW2580	108
A-769662 and PF-562271	97.3
sorafenib and gemcitabine	492
bexarotene and A-769662	104

For reference, 4 entries once more:

Combination	IPC-298
tipifarnib and gemcitabine	101
PF-562271 and gemcitabine	295
A-769662 and FH535	108
tipifarnib and PF-562271	104

Source: doi:10.1371/journal.pone.0140310, primary screening data, rounded.